Measurements from publication PMC7034062.
These are yes or no findings as the source states them, for the method shown. In cells and extracts the contact can be indirect. These calls come from enrichment with a bait or labelling near it, and not all partners need be listed.

Biological target: T1, TAP-Sen1 (2-931) (S. cerevisiae) (UniProt Q00416)
T1 sequence: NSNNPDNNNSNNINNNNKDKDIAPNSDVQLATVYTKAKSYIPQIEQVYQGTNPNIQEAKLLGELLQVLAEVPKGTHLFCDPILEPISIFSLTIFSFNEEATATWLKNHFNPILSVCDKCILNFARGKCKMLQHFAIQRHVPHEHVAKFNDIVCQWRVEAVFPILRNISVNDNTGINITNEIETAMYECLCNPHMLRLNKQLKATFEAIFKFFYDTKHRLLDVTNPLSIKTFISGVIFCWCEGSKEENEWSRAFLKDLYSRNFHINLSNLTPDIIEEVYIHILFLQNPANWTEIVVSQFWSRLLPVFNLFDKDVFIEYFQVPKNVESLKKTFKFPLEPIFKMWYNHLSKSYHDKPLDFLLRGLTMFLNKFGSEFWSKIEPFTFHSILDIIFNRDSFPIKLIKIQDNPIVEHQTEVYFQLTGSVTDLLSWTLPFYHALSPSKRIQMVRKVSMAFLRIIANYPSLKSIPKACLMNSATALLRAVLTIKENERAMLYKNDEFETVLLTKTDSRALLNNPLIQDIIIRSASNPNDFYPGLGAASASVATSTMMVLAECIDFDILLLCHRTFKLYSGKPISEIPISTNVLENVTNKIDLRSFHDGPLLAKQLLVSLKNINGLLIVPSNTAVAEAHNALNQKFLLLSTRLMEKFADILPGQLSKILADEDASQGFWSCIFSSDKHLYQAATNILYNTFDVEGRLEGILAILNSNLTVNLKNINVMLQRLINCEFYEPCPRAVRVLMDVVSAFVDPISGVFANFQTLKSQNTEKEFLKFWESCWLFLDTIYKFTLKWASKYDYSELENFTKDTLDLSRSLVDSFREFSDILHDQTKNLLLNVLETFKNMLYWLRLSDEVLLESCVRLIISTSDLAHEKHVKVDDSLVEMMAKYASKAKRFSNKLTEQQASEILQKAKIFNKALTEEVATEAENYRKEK
Experiment: affinity purification with mass spectrometry; TAP-Sen1 (2-931) on TAP-beads, released with AcTEV protease (24°C, 2 h), CBP-Sen1 (2-931) bound to calmodulin beads (4°C, 2 h); cells in G1 and in S phase; four biological replicates pooled

B1: Ctf4 (protein, UniProt Q01454 1-927)
chain: MVSVIDKLVFDFGGKTLVSLAPDNNTLCVANKNGLTKILKTNNPEEEPETLDSSKLVSSIKCYSNSHFLMTTMQGDALRYNIDSSQEELLARFALPLRDCCVIHSGKMAVFGGDDLELILLELDDETHKKHAIKIDEQVSQISYNSQMNILAVSMINGKVQIFSLTSTIPNKVHELNDYIVANSYDDTHRDKILSNMMDDIDKDNDNDLSETADPDENNVADPEFCAANRICTRVAWHPKGLHFALPCADDTVKIFSIKGYSLQKTLSTNLSSTKAHFIDLQFDPLRGTYIAAVDLNNKLTVWNWETSEIHYTREFKRKITNIAWKIQADSKTLDLVLGTWSGSIAIVQNLAESVVSNIPDQSVAESSTKHGLFVDSESDLENLEGNDDINKSDKLFSDITQEANAEDVFTQTHDGPSGLSEKRKYNFEDEEDFIDDDDGAGYISGKKPHNEHSYSRVHKTHSFPISLANTGKFRYMPFSPAGTPFGFTDRRYLTMNEVGYVSTVKNSEQYSITVSFFDVGRFREYHFEDLFGYDLCFLNEKGTLFGQSKTGQIQYRPHDSIHSNWTKIIPLQAGERITSVAATPVRVIVGTSLGYFRSFNQFGVPFAVEKTSPIVALTAQNYRVFSVHYSQFHGLSYSLSELGTSSKRYYKRECPLPMSLPNINSDMKKDANLDYYNFNPMGIKSLFFSSYGDPCIFGSDNTLLLLSKWRSPEESKWLPILDSNMEIWKMSGGKETTDIHVWPLALAYDTLNCILVKGKHIWPEFPLPLPSEMEIRMPVFVKSKLLEENKAILNKKNEIGADTEAEEGEEDKEIQIPVSMAAEEEYLRSKVLSELLTDTLENDGEMYGNENEVLAALNGAYDKALLRLFASACSDQNVEKALSLAHELKQDRALTAAVKISERAELPSLVKKINNIREARYEQQLK
B1 was tested, and the binding was “binds”.
